# Test results published in patent US4362870A, “Selective opioid receptor alkylating agents” (priority 1981, dated 1982).
# pIC50: −log10 of the molar value. Where two headings read alike, the source gives them in different places.
# System: electrically stimulated guinea pig ileal longitudinal muscle
# Assay type: cell-based
compound,measurement,setting,value
CN1CC[C@]23c4c5ccc(O)c4O[C@H]2[C@@H](O)C=C[C@H]3[C@H]1C5 [Morphine],IC50 Ratio FNA/Control,"agonist IC50 after FNA (2 × 10^-8, 30 min, 20 washes) / control",5.8
same,pIC50,read-out: IC50 After FNA,6.80
same,pIC50,read-out: IC50 Control,7.56
